Publication PMC8038996
No constants are given. Whether binding was seen depends on the method and setting. Binding seen in cells or lysates may run through a third protein. Some results given as binding are weak or reduced against the parent protein; the word gives no strength.

By UniProt entry, the sequences of proteins in these tests, tags left out.
UniProt P62814: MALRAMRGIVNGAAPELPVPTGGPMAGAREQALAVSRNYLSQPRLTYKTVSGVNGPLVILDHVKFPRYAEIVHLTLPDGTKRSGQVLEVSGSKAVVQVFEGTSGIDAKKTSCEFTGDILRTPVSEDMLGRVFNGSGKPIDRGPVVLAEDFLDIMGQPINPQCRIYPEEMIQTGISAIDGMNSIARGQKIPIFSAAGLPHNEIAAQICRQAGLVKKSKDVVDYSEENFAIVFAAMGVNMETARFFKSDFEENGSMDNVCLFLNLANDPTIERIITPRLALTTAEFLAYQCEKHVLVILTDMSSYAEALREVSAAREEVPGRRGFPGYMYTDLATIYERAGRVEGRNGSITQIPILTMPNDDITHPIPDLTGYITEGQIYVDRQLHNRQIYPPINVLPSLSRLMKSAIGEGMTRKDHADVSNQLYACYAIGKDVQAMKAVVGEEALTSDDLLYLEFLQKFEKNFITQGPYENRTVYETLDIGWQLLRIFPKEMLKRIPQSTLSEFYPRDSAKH
UniProt Q9Z1G4: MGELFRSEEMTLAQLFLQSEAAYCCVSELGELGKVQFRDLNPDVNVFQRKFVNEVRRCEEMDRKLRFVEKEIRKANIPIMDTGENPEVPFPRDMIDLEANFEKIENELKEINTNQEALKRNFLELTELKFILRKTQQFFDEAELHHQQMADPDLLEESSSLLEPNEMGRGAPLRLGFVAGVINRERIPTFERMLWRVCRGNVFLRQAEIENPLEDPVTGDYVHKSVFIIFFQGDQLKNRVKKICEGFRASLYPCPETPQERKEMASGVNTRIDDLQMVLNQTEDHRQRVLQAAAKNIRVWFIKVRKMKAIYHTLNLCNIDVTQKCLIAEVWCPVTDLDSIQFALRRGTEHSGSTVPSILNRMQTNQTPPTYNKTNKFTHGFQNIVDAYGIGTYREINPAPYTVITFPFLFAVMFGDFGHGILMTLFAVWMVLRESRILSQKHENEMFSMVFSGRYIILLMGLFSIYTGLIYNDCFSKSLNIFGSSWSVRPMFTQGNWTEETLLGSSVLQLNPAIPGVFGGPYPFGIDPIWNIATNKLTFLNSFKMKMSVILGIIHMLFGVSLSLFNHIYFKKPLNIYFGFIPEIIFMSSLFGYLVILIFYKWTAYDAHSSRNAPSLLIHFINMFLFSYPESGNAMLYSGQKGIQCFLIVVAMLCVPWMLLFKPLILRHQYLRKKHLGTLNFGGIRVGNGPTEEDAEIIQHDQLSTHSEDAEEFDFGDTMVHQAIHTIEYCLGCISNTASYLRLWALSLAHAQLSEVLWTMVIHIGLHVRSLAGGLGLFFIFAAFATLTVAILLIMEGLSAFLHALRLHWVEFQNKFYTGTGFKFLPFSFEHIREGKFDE
UniProt P50516: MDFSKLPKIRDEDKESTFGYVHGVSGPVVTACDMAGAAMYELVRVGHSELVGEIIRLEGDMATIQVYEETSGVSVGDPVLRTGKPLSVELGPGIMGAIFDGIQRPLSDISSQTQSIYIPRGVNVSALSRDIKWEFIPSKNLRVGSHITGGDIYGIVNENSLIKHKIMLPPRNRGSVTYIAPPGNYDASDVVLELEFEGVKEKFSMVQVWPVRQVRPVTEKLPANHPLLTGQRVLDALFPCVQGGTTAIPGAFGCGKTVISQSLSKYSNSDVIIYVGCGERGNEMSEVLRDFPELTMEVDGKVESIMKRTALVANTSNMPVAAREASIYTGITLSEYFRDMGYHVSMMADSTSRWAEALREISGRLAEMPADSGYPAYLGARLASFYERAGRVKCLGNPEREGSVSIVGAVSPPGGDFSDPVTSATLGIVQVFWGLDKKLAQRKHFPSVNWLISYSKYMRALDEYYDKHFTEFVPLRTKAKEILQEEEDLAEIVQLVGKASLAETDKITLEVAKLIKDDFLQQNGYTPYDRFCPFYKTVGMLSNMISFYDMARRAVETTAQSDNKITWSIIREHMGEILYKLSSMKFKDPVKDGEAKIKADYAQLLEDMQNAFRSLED
UniProt Q91YH6: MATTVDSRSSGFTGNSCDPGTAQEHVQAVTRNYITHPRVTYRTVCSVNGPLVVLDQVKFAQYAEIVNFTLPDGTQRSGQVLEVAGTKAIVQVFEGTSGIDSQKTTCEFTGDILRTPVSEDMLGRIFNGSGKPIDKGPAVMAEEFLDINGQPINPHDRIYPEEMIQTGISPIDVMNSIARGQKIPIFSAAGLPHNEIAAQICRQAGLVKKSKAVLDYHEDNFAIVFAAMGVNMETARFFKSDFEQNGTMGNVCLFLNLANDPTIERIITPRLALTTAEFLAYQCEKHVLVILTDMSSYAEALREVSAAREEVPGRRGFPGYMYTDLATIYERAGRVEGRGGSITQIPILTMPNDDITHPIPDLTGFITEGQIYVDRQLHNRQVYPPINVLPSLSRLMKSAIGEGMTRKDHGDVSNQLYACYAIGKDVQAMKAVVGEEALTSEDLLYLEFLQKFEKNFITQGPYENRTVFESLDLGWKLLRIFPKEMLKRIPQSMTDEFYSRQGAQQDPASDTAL

T1: nuclear receptor coactivator 7 (NCOA7) (mouse (endogenous in adult mouse brain and kidney)) (UniProt Q6DFV7)
T1 sequence: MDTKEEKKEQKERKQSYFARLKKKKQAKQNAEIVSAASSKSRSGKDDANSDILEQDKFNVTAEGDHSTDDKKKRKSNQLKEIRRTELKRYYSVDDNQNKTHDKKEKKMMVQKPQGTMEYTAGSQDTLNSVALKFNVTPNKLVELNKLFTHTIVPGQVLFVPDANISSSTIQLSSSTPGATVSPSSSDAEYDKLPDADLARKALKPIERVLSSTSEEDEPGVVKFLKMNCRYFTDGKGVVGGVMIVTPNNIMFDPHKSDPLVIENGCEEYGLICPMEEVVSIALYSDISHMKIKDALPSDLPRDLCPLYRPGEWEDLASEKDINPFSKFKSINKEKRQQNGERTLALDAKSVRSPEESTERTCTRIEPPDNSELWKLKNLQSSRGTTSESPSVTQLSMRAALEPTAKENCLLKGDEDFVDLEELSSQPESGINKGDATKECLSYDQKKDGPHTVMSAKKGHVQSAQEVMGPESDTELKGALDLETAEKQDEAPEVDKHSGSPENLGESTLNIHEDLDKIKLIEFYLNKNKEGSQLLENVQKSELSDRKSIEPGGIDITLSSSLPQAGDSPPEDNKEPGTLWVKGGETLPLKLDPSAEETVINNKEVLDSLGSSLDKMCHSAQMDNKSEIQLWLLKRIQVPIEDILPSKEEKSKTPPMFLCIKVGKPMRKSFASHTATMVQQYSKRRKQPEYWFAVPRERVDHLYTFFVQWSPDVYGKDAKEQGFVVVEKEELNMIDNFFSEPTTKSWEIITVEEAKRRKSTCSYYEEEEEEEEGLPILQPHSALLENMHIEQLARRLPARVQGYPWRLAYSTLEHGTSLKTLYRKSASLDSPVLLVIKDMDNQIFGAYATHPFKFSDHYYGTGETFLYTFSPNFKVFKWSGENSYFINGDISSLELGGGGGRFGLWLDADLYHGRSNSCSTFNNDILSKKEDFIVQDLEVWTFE


Columns and labels:
[1] = biological target: T1, nuclear receptor coactivator 7 (NCOA7) (mouse (endogenous in adult mouse brain and kidney)); test: co-IP; IP with anti-NCOA7 (crosslinked to Protein A/G Plus agarose, overnight 4 °C) from membrane, cytosolic and nuclear fractions of WT adult mouse whole brain; DEL (Ncoa7 deletion) brain as specificity control; Western blot for V1 and V0 subunits
[2] = biological target: T1, nuclear receptor coactivator 7 (NCOA7) (mouse (endogenous in adult mouse brain and kidney)); test: co-IP; co-immunoprecipitation from mouse kidney in vivo (Supplementary Figure S6A, B); DEL model used; precipitating antibody not told in the text shown
[3] = biological target: V-ATPase V1 subunit ATP6V1B2 (mouse (endogenous in adult mouse whole brain)) (UniProt P62814); test: co-IP; reciprocal IP with anti-ATP6V1B2 from the same adult mouse whole brain fractions; Western blot for NCOA7

| binding [1] | Molecule | other results |
| --- | --- | --- |
| no binding | V-ATPase V0 subunit ATP6V0a1 (from UniProt Q9Z1G4 1-839) |  |
| binds | V-ATPase V1 subunit ATP6V1A(1) (from UniProt P50516 1-617) |  |
|  | kidney-specific V-ATPase V1 subunit ATP6V1B1 (from UniProt Q91YH6 1-513) | binding [2]: binds |
|  | nuclear receptor coactivator 7 (NCOA7) (protein, UniProt Q6DFV7 1-943) MDTKEEKKEQKERKQSYFARLKKKKQAKQNAEIVSAASSKSRSGKDDANSDILEQDKFNVTAEGDHSTDDKKKRKSNQLKEIRRTELKRYYSVDDNQNKTHDKKEKKMMVQKPQGTMEYTAGSQDTLNSVALKFNVTPNKLVELNKLFTHTIVPGQVLFVPDANISSSTIQLSSSTPGATVSPSSSDAEYDKLPDADLARKALKPIERVLSSTSEEDEPGVVKFLKMNCRYFTDGKGVVGGVMIVTPNNIMFDPHKSDPLVIENGCEEYGLICPMEEVVSIALYSDISHMKIKDALPSDLPRDLCPLYRPGEWEDLASEKDINPFSKFKSINKEKRQQNGERTLALDAKSVRSPEESTERTCTRIEPPDNSELWKLKNLQSSRGTTSESPSVTQLSMRAALEPTAKENCLLKGDEDFVDLEELSSQPESGINKGDATKECLSYDQKKDGPHTVMSAKKGHVQSAQEVMGPESDTELKGALDLETAEKQDEAPEVDKHSGSPENLGESTLNIHEDLDKIKLIEFYLNKNKEGSQLLENVQKSELSDRKSIEPGGIDITLSSSLPQAGDSPPEDNKEPGTLWVKGGETLPLKLDPSAEETVINNKEVLDSLGSSLDKMCHSAQMDNKSEIQLWLLKRIQVPIEDILPSKEEKSKTPPMFLCIKVGKPMRKSFASHTATMVQQYSKRRKQPEYWFAVPRERVDHLYTFFVQWSPDVYGKDAKEQGFVVVEKEELNMIDNFFSEPTTKSWEIITVEEAKRRKSTCSYYEEEEEEEEGLPILQPHSALLENMHIEQLARRLPARVQGYPWRLAYSTLEHGTSLKTLYRKSASLDSPVLLVIKDMDNQIFGAYATHPFKFSDHYYGTGETFLYTFSPNFKVFKWSGENSYFINGDISSLELGGGGGRFGLWLDADLYHGRSNSCSTFNNDILSKKEDFIVQDLEVWTFE | binding [3]: binds |
